Source: patent US20230131376A1, “ADJUVANT-ANTIBIOTIC COMBINATION AGAINST GRAM-NEGATIVE BACTERIA” (University of Notre Dame du Lac, priority 2020, published 2023)
Some results were stated once for a whole list of compounds, not compound by compound.

Test system: mcr-1 plasmid containing E. coli, K. pneumoniae, and A. baumannii
Test: Colistin potentiation stated for all three mcr-1 strains together
Conditions: adjuvant at 50 μM

SMILES | colistin MIC with adjuvant, all three mcr-1 strains [µg/mL]
O=C(NCCc1c[nH]c2ccccc12)Nc1ccc(Cl)c(Cl)c1 [Compound 8d, 1-(2-(1H-indol-3-yl)ethyl)-3-(3,4-dichlorophenyl)urea] | ≤ 2
O=C(NCCc1c[nH]c2ccc(Br)cc12)Nc1cc(Cl)c(Br)c(Cl)c1 [Compound 9e, 1-(2-(5-bromo-1H-indol-3-yl)ethyl)-3-(4-bromo-3,5-dichlorophenyl)urea] | ≤ 2
O=C(NCCc1c[nH]c2ccccc12)Nc1cc(C(F)(F)F)cc(C(F)(F)F)c1 [Compound 8c, 1-(2-(1H-indol-3-yl)ethyl)-3-(3,5-bis(trifluoromethyl)phenyl)urea] | ≤ 2
O=C(NCCc1c[nH]c2ccc(Br)cc12)Nc1ccc(Cl)c(Cl)c1 [Compound 9d, 1-(2-(5-bromo-1H-indol-3-yl)ethyl)-3-(3,4-dichlorophenyl)urea] | ≤ 2
O=C(NCCc1c[nH]c2ccccc12)Nc1cc(Br)cc(Br)c1 [Compound 8b, 1-(2-(1H-indol-3-yl)ethyl)-3-(3,5-dibromophenyl)urea] | ≤ 2
O=C(NCCc1c[nH]c2ccccc12)Nc1cc(Cl)c(Br)c(Cl)c1 [Compound 8e, 1-(2-(1H-indol-3-yl)ethyl)-3-(4-bromo-3,5-dichlorophenyl)urea] | ≤ 2
